Values quoted from earlier work, collected in US20110201620A1, “2-(3-AMINOARYL) AMINO-4-ARYL-THIAZOLES AND THEIR USE AS C-KIT INHIBITORS” (AB SCIENCE, priority 2002, published 2011).

Tested on: Human Kit exon 9
Conditions: read-out: Cell proliferation assay (IC50) Human Kit exon 9; cited from earlier work

## Cc1ccc(NC(=O)c2ccc(CN3CCN(C)CC3)cc2)cc1Nc1nccc(-c2cccnc2)n1 [imatinib]
  IC50: ~200 nM
